# Patent publication EP2261259B1, “Immunoassay for N-(3-chlorophenyl)piperazine-based anti-depressants” (Randox Laboratories Ltd., priority 2009, dated 2010)
# System: antibody of the invention
# Test: Competitive ELISA (antibody-coated microtitre plate, hapten-HRP conjugate, TMB, absorbance at 450 nm)
# Assay type: binding, sheep
# Conditions: standard concentration which produces 50% B/B0
# Method: The process of developing an immunoassay is well known to the person skilled in the art. Briefly, for a competitive immunoassay in which the target analyte is a non-immunogenic molecule commonly referred to as a hapten, the following process is conducted: antibodies are produced by immunising an animal, preferably a mammalian animal, by repeated administration of an immunogen. The serum from the immunised animal is collected when the antibody titre is sufficiently high. A conjugate is added to a sample containing the target analyte and the raised antibodies, and the conjugate and analyte compete for binding to the antibodies. The process may comprise fixing said serum antibodies to a backing substrate such as a polystyrene solid support or a biochip. The antibodies can be polyclonal or monoclonal. The signal emitted in the immunoassay is proportionate to the amount of conjugate bound to the antibodies which in turn is inversely proportionate to the analyte concentration. The signal can be detected or quantified by comparison with a calibrator.
# Trazodone and N-(3-chlorophenyl)piperazine were coupled by way of a crosslinker to bovine thyroglobulin (BTG). […] The absorbancies were read at 450nm with an ELISA microplate reader (BIO-TEK Instruments, EL340) and the means calculated. Antibody specificity and sensitivity were then determined […]
compound,measurement,value
"O=c1n(CCCN2CCN(c3cccc(Cl)c3)CC2)nc2ccccn12 [Trazodone, 2-{3-[4-(3-chlorophenyl)-1-piperazinyl]propyl}-[1,2,4]triazolo[4,3-a]pyridin-3(2H)-one]",IC50,0.532 ng/mL
